From the supplement of paper PMC6411743 come the findings set out here.

Protein sequences, listed by entry. Tags and fused reporters are not part of them.
UniProt P54709, whole entry: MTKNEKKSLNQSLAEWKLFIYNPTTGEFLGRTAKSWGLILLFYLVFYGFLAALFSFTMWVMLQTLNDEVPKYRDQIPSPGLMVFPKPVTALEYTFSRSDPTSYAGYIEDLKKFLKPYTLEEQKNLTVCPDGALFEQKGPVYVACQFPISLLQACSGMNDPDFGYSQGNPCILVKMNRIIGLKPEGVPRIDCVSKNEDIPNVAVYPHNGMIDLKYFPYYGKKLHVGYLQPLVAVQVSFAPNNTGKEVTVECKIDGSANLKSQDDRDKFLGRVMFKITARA

The target of this assay is ATP1B3 (UniProt P54709). Put plainly: NP40-soluble protein abundance relative to vehicle (solubility fold change) (ratio); higher = more soluble protein in presence of AMP-PNP. In short, it runs like this:
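Data come from three independent experiments in which Dounce-homogenised Jurkat crude lysate was treated at eight concentrations from 0.1 to 10 mM. Treatment ran 10 min at room temperature and then 3 min at 37 °C, after which 0.8% NP40 and benzonase were added for 60 min at 4 °C before ultracentrifugation. The supernatant underwent TMT labelling and LC-MS/MS, and vsn-normalised intensities were expressed as fold change against the detergent-processed vehicle in each replicate.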

SMILES strings stand for the structures. ± gives the standard deviation of the averaged measurements. The list shows a part of the results, in another mix than the full data. Small differences around the control level are noise.

Take `Nc1ncnc2c1ncn2[C@@H]1O[C@H](COP(=O)(O)OP(=O)(O)NP(=O)(O)O)[C@@H](O)[C@H]1O` [adenylyl imidodiphosphate]: the NP40-soluble protein abundance came out at 0.993 ± 0.012 (concentration: 0.1mM) and 1.03 ± 0.022 (concentration: 0.5mM).
